PubChem BioAssay AID743454, Peter MacCallum Cancer Centre, 2014

Aim: 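Search for knock-downs that restore vorinostat killing in resistant colon cancer cells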 (primary screen)
System: human HCT116-VR colon cancer cells, selected for vorinostat resistance
Knock-down reagent: siRNA pool against human genes, 40 nM siRNA pool
Time to read-out: vorinostat for 24 h, read-out about 72 h after transfection
Conditions: vorinostat at 2.5 µM final
Measurement: 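Cell viability by CellTiter-Fluor and caspase 3/7 activity by luminescence, each scaled to mock wells per plate, duplicates averaged, then robust z-scored over all plates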
Scale: viability robust z-score: higher = more viable cells than screen typical; caspase robust z-score: higher = more caspase 3/7 activity than screen typical
Call rule: 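a knock-down is a hit when classed RV1 or RV2 for lowered viability, or CA1 or CA2 for caspase activation; those lethal without drug were dropped; hits were retested singly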
Shown is an unselected part of about 18,000 reagents tested. Of all reagents, 450 (2.5%) were called active. 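Single biological run; no consistent viability z cut-off exists, so the class columns, not z-scores, define the calls.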

With knock-down of ITIH4 (inter-alpha-trypsin inhibitor heavy chain 4) [SID134321746], the record shows viability hit class no change; caspase hit class no change; viability robust z-score -2.23; caspase robust z-score 0.5; inactive.
Against CRYM (crystallin mu) [SID152154216], the values are viability hit class no change; caspase hit class no change; viability robust z-score -0.75; caspase robust z-score -1.16; inactive.
H3C14 (H3 clustered histone 14) [SID134322908] scored viability hit class no change; caspase hit class no change; viability robust z-score -1.49; caspase robust z-score 1.3; inactive.
COX5A (cytochrome c oxidase subunit 5A) [SID134316251] gave viability hit class no change; caspase hit class no change; viability robust z-score -0.4; caspase robust z-score -0.66; inactive.
TBL3 (transducin beta like 3) [SID152154073] scored viability hit class no change; caspase hit class no change; viability robust z-score -1.05; caspase robust z-score -0.33; inactive.
For PIN1 (peptidylprolyl cis/trans isomerase, NIMA-interacting 1) [SID152148684], the values are viability hit class no change; caspase hit class no change; viability robust z-score 1.58; caspase robust z-score 0.36; inactive.
For SPRR2F (small proline rich protein 2F) [SID152150197], the values are viability hit class no change; caspase hit class no change; viability robust z-score -0.36; caspase robust z-score 1.54; inactive.
FLNB (filamin B) [SID152151065] gave viability hit class no change; caspase hit class no change; viability robust z-score -0.76; caspase robust z-score 1.83; inactive.
Against B3GALT2 (beta-1,3-galactosyltransferase 2) [SID134317904], the entry reads viability hit class no change; caspase hit class CA2 (caspase activation); viability robust z-score -0.3; caspase robust z-score 5.22; active.
With knock-down of KCTD3 (potassium channel tetramerization domain containing 3) [SID134324650], the record shows viability hit class no change; caspase hit class no change; viability robust z-score -0.87; caspase robust z-score 4.83; inactive.
SLC75A1 [SID152151513] showed viability hit class no change; caspase hit class no change; viability robust z-score -1.13; caspase robust z-score 0.38; inactive.
Silencing of BRINP1 (BMP/retinoic acid inducible neural specific 1) [SID152154722] came out at: viability hit class no change; caspase hit class no change; viability robust z-score 0.84; caspase robust z-score -0.61; inactive.

As entered above.
For “viability hit class”, ITIH4 (inter-alpha-trypsin inhibitor heavy chain 4) [SID134321746] shows no change
FLNB (filamin B) [SID152151065], caspase robust z-score → 1.83
